We go through one substance from publication doi:10.1101/2023.03.05.531149.

Sequences of proteins named here, by UniProt entry; tags and fusion partners are left off. Residues count along the entry.
UniProt P48431, residues 115-240: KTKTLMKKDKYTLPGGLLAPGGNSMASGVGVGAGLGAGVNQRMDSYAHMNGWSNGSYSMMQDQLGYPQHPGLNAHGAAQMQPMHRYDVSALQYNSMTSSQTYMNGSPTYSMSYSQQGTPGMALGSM
UniProt Q9Z0Z7: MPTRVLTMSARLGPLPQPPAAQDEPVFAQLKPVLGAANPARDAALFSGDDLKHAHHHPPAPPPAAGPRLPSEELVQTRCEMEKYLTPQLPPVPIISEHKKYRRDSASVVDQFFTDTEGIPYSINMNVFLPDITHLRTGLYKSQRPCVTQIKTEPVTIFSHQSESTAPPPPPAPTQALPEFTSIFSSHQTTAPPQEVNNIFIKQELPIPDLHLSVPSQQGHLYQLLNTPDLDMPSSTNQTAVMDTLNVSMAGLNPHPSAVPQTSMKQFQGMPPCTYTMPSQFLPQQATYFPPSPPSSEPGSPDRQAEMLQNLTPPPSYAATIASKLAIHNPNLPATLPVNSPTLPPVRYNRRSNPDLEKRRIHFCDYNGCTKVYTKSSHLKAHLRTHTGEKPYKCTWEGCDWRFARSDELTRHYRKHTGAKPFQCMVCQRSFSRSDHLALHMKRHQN

No constants are given. Whether binding was seen depends on the method and setting. In cells and extracts the contact can be indirect. Here binding means that the protein was enriched with, or labelled near, the bait; the list need not be complete.

Test [1] deals with AviTag-Sox2(aa115-240), biotinylated, non-phosphorylated (human) (UniProt P48431). Put plainly: affinity purification with mass spectrometry.
Test [2] concerns the target phospho-Sox2(aa115-240)-pS212-pS220-pT232, AviTag, biotinylated (human) (UniProt P48431). Briefly: affinity purification with mass spectrometry.

In the case of Klf5 (from UniProt Q9Z0Z7 1-446), the binding entry in test [1] and in test [2] was “binds” each time.
